Laboratory results published in article doi:10.1101/2023.08.31.555722.
These are yes or no findings as the source states them, for the method shown. Binding seen in cells or lysates may run through a third protein. Some binding calls cover weakened binding; strength is not graded here. Where a sequence is shown, tags or fusion partners need not be part of it.

How the values were obtained:
Experiment in all cases: co-IP
[1] = target: T1, Tgfbrap1-FLAG (human) (UniProt Q8WUH2)
T1 sequence: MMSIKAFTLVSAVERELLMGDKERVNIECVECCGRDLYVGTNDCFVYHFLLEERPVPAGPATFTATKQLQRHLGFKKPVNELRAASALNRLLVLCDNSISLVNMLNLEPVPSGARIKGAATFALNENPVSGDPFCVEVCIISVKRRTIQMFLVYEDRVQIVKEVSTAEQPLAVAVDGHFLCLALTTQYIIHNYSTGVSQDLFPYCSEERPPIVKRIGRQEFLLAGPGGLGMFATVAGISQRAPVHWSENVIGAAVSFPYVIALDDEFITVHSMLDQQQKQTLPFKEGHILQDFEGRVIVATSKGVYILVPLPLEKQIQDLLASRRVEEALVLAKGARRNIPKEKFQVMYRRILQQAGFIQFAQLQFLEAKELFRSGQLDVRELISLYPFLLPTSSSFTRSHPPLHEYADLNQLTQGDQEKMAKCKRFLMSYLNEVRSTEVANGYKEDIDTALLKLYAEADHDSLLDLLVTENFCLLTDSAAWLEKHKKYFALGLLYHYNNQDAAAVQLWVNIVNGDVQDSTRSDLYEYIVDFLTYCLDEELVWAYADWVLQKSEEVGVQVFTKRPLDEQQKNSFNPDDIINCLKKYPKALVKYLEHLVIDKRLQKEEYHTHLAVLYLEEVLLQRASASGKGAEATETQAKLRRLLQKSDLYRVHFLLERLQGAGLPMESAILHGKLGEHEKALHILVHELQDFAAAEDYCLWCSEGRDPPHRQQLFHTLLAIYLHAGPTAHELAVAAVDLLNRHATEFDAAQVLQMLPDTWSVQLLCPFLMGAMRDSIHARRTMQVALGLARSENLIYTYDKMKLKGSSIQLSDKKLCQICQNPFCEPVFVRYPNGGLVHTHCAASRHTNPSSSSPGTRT

[2] = target: T2, Vps39-FLAG (human) (UniProt Q96JC1)
T2 sequence: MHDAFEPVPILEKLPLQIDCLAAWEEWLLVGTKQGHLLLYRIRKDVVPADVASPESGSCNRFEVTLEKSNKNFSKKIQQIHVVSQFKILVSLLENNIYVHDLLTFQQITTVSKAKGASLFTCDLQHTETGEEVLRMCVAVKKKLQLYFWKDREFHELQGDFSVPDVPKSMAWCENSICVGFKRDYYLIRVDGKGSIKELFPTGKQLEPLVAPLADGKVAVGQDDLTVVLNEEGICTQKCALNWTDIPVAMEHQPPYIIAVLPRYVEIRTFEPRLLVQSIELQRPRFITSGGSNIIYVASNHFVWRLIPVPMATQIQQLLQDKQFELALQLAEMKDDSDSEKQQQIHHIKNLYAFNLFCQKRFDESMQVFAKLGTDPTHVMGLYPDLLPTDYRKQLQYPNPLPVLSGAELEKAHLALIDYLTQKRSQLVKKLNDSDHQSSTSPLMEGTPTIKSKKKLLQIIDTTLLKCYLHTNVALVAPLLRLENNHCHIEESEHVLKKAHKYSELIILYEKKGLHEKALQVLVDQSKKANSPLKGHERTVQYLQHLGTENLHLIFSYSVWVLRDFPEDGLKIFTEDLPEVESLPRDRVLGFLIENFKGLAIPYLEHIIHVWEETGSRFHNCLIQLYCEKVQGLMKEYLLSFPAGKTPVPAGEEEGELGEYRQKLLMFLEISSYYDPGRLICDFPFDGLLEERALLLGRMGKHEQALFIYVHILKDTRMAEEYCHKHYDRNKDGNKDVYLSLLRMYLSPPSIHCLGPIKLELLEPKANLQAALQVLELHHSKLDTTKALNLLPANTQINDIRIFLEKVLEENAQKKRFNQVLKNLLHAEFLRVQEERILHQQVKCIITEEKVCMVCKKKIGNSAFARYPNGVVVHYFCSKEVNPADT

[3] = target: T3, Tgfbrap1-FLAG (human), Q8WUH2; conditions: remark: other sources report otherwise
T3 chain: T1 sequence

B1: Vps8 (without tag) (protein, UniProt Q8N3P4 1-1428)
chain: MENEPDHENVEQSLCAKTSEEELNKSFNLEASLSKFSYIDMDKELEFKNDLIDDKEFDIPQVDTPPTLESILNETDDEDESFILEDPTLLNIDTIDSHSYDTSSVASSDSGDRTNLKRKKKLPDSFSLHGSVMRHSLLKGISAQIVSAADKVDAGLPTAIAVSSLIAVGTSHGLALIFGKDQNQALRLCLGSTSVGGQYGAISALSINNDCSRLLCGFAKGQITMWDLASGKLLRSITDAHPPGTAILHIKFTDDPTLAICNDSGGSVFELTFKRVMGVRTCESRCLFSGSKGEVCCIEPLHSKPELKDHPITQFSLLAMASLTKILVIGLKPSLKVWMTFPYGRMDPSSVPLLAWHFVAVQNYVNPMLAFCRGDVVHFLLVKRDESGAIHVTKQKHLHLYYDLINFTWINSRTVVLLDSVEKLHVIDRQTQEELETVEISEVQLVYNSSHFKSLATGGNVSQALALVGEKACYQSISSYGGQIFYLGTKSVYVMMLRSWRERVDHLLKQDCLTEALALAWSFHEGKAKAVVGLSGDASKRKAIVADRMVEILFHYADRALKKCPDQGKIQVMEQHFQDMVPVIVDYCLLLQRKDLLFSQMYDKLSENSVAKGVFLECLEPYILSDKLVGITPQVMKDLIVHFQDKKLMENVEALIVHMDITSLDIQQVVLMCWENRLYDAMIYVYNRGMNEFISPMEKLFRVIAPPLNAGKTLTDEQVVMGNKLLVYISCCLAGRAYPLGDIPEDLVPLVKNQVFEFLIRLHSAEASPEEEIYPYIRTLLHFDTREFLNVLALTFEDFKNDKQAVEYQQRIVDILLKVMVENSDFTPSQVGCLFTFLARQLAKPDNTLFVNRTLFDQVLEFLCSPDDDSRHSERQQVLLELLQAGGIVQFEESRLIRMAEKAEFYQICEFMYEREHQYDKIIDCYLRDPLREEEVFNYIHNILSIPGHSAEEKQSVWQKAMDHIEELVSLKPCKAAELVATHFSGHIETVIKKLQNQVLLFKFLRSLLDPREGIHVNQELLQISPCITEQFIELLCQFNPTQVIETLQVLECYRLEETIQITQKYQLHEVTAYLLEKKGDIHGAFLIMLERLQSKLQEVTHQGENTKEDPSLKDVEDTMVETIALCQRNSHNLNQQQREALWFPLLEAMMAPQKLSSSAIPHLHSEALKSLTMQVLNSMAAFIALPSILQRILQDPVYGKGKLGEIQGLILGMLDTFNYEQTLLETTTSLLNQDLHWSLCNLRASVTRGLNPKQDYCSICLQQYKRRQEMADEIIVFSCGHLYHSFCLQNKECTVEFEGQTRWTCYKCSSSNKVGKLSENSSEIKKGRITPSQVKMSPSYHQSKGDPTAKKGTSEPVLDPQQIQAFDQLCRLYRGSSRLALLTELSQNRSSESYRPFSGSQSAPAFNSIFQNENFQLQLIPPPVTED
**Q.** How did the binding [1] turn out when B1 was run?
**A.** binds

**Q.** What about the binding [2] of the same binder?
**A.** binds

B2: Vps41-HA (protein, UniProt P49754 1-854)
chain: MAEAEEQETGSLEESTDESEEEESEEEPKLKYERLSNGVTEILQKDAASCMTVHDKFLALGTHYGKVYLLDVQGNITQKFDVSPVKINQISLDESGEHMGVCSEDGKVQVFGLYSGEEFHETFDCPIKIIAVHPHFVRSSCKQFVTGGKKLLLFERSWMNRWKSAVLHEGEGNIRSVKWRGHLIAWANNMGVKIFDIISKQRITNVPRDDISLRPDMYPCSLCWKDNVTLIIGWGTSVKVCSVKERHASEMRDLPSRYVEIVSQFETEFYISGLAPLCDQLVVLSYVKEISEKTEREYCARPRLDIIQPLSETCEEISSDALTVRGFQENECRDYHLEYSEGESLFYIVSPRDVVVAKERDQDDHIDWLLEKKKYEEALMAAEISQKNIKRHKILDIGLAYINHLVERGDYDIAARKCQKILGKNAALWEYEVYKFKEIGQLKAISPYLPRGDPVLKPLIYEMILHEFLESDYEGFATLIREWPGDLYNNSVIVQAVRDHLKKDSQNKTLLKTLAELYTYDKNYGNALEIYLTLRHKDVFQLIHKHNLFSSIKDKIVLLMDFDSEKAVDMLLDNEDKISIKKVVEELEDRPELQHVYLHKLFKRDHHKGQRYHEKQISLYAEYDRPNLLPFLRDSTHCPLEKALEICQQRNFVEETVYLLSRMGNSRSALKMIMEELHDVDKAIEFAKEQDDGELWEDLILYSIDKPPFITGLLNNIGTHVDPILLIHRIKEGMEIPNLRDSLVKILQDYNLQILLREGCKKILVADSLSLLKKMHRTQMKGVLVDEENICESCLSPILPSDAAKPFSVVVFHCRHMFHKECLPMPSMNSAAQFCNICSAKNRGPGSAILEMKK
**Q.** For B2, which binding [2] is on record?
**A.** binds

B3: Vps41-HA, P49754 1-854 (protein)
chain: B2 chain
**Q.** For B3, which binding [3] is on record?
**A.** no binding
